Reference: paper PMC7354492, “Drugs Commonly Applied to Kidney Patients May Compromise Renal Tubular Uremic Toxins Excretion” (Toxins, 2020)

Experiments:
[1] = human; cited from earlier work
OAT1 = target: T1, OAT1 (Homo sapiens, UniProt Q4U2R8); test: OAT1-mediated fluorescein uptake inhibition assay in ciPTEC-OAT1
T1 sequence (Q4U2R8 1-563): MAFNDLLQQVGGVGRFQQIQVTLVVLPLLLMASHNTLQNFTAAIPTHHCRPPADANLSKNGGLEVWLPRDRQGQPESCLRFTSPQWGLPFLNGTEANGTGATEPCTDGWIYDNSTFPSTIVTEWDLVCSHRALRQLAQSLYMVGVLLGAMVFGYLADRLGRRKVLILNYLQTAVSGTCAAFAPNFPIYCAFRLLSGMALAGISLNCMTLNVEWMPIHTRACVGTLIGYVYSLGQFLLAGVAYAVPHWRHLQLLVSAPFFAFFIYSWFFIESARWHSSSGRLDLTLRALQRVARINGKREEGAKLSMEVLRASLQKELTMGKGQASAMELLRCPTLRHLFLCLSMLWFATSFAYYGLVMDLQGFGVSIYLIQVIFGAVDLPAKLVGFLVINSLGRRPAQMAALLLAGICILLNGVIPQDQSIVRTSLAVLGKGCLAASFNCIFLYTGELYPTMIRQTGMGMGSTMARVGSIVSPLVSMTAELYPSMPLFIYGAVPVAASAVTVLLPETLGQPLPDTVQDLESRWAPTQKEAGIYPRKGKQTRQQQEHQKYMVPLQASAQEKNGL

NS(=O)(=O)c1cc(C(=O)O)c(NCc2ccco2)cc1Cl [Furosemide, furosemide]
Renal CL [1]: 1.7 mL/min/kg | IC50 (OAT1): 28.1 ± 9.1 µM
